Article PMC12567515, “Assessment of Carrier-Free Metallacarboranes for Targeted Radiation Therapies PBFT and BNCT: Comparative Cellular Effects and Dosimetry Studies with [o-FESAN]^− in Breast Cancer Cells” (Pharmaceuticals, 2025)

Columns and labels:
Assay type in all cases: cell-based, human
MDA-MB-231 cells [1] = assay: Cellular uptake of B and Fe by ICP-MS; details: for Internalized B: 24 h incubation
Description: (§1) The cellular uptake of Na[o-FESAN] was measured by ICP-MS in the subcellular cytoplasm and nucleus fractions, after 24 h of exposure to Na[o-FESAN] at 50 µM, which allowed for assessing both B and Fe content. The B-to-Fe ratio of around three found in both cellular compartments aligns with the compound’s stoichiometry, reinforcing its structural integrity and highlighting the importance of nuclear localization for the therapeutic efficacy of both therapies, BNCT and PBFT (Table 1).
(§2) For neutron irradiation, SKBR-3 and MDA-MB-231 cells were incubated with Na[o-FESAN] at 50 and 100 µM and were irradiated with thermal neutrons at the Triga Mark II nuclear reactor at the University of Pavia. […] Both surviving SKBR-3 and MDA-MB-231 cells that were treated with Na[o-FESAN] […] This clearly indicates the important contribution of neutron capture to induce a long-term cytotoxic effect. Another important point is that the toxic effect was observed using Na[o-FESAN] containing natural B. In fact, the amount of internalized B measured by ICP-MS after 24 h incubation with 50 or 100 µM Na[o-FESAN] contained only 19.9% of the active ^10B isotope. Assuming that in the case of epithelial tumors (with a diameter ranging from 15–20 µm), a density of ca. 10^8 cells for cm^3 is a reasonable number, [76] from the data obtained by ICP-MS analysis, it was possible to calculate the amount of ^10B internalized in cells expressed in ppm (µg/g).
(§3) SKBR-3 and MDA-MB-231 cells (~10^6 cells/2 mL) were incubated with Na[o-FESAN] 50 µM for 24 h in 6-well plates. The cellular fractions, nucleus and cytosol, were obtained using Igepal® ca-630 (Sigma-Aldrich, Darmstadt, Germany). Briefly, after treatment, cells were washed with PBS and collected by centrifugation. Then, the cells were lysed with buffer containing 50 mM Tris (pH 7.4), 250 mM NaCl, 5 mM EDTA, 50 mM NaF, 1 mM Na3VO4, 0.02% NaN3 and 1% Igepal for 30 min. on ice, with constant vortexing for 10 min. After centrifugation at 400× g for 10 min, 4 °C, the supernatant (cytosol) and the pellet (nucleus) fractions were obtained. The levels of B and Fe in each fraction were measured by a Thermo X-Series Quadrupole ICP-MS (Thermo Scientific, Birmingham, UK) and were expressed as ng of B or Fe/10^6 cells (Table 1).

SKBR-3 cells = assay: Cellular uptake of B and Fe by ICP-MS; details: for Internalized B: 24 h incubation
Description: as §1, §2, §3

MDA-MB-231 cells [2] = assay: Single cell Fe uptake by nuclear microscopy (micro-PIXE); details: MDA-MB-231, 50 µM, 24 h
Description: The concentration of Fe in MDA-MD-231 cells treated with Na[o-FESAN] increased by 1.7-fold in the cytoplasm and by up to 2.2-fold in the nucleus, as compared to the untreated control counterparts (average Fe concentration in the cytoplasm on a dry weight basis: 250 ± 30 µg/g vs. 150 ± 10 µg/g in controls; in the nucleus: 430 ± 90 µg/g vs. 200 ± 30 µg/g in controls).
The distribution of Fe in single MDA-MB-231 cells (controls and after 24 h incubation with 50 µM Na[o-FESAN]) was assessed by nuclear microscopy imaging performed at the nuclear microprobe setup of the CTN/IST Van de Graaff accelerator [69, 70]. In brief, cells were seeded on silicon nitride membranes (Silson Ltd., Southam, UK). Images of elemental distributions (such as Fe) and morphology (mass density) were created using different techniques simultaneously by scanning a 2.0 MeV proton beam focused to micrometer dimensions over the sample surface. This enables the colocalization of cell features and Fe quantification by PIXE, which is useful for assessing cellular uptake and elemental compartmentalization. The data acquisition, including imaging processing and spectral analysis, was performed using DAQ-3 software (version 3) (Oxford Microbeams Ltd., Bicester, UK).

[3] = MDA-MB-231, 50 µM, 24 h, ICP-MS, B and Fe in ng/10^6 cells
[4] = SKBR-3, 50 µM, 24 h, ICP-MS, B and Fe in ng/10^6 cells

In the case of [3,3′-Fe(1,2-C2B9H11)2]^− [Na[o-FESAN]], the “B/Fe ratio, Cytoplasm” value (MDA-MB-231 cells [1]; [3]) was 2.8, the “B/Fe ratio, Nucleus” value (MDA-MB-231 cells [1]; [3]) was 2.7 and the “Internalized B” value (MDA-MB-231 cells [1]; MDA-MB-231, 50 µM) was 310 ± 87 ng/10^6 Cells. For the same substance, the “Internalized B” value (MDA-MB-231 cells [1]; MDA-MB-231, 100 µM) was 406 ± 113 ng/10^6 Cells, the “B/Fe ratio, Cytoplasm” value (SKBR-3 cells; [4]) was 2.8 and the “B/Fe ratio, Nucleus” value (SKBR-3 cells; [4]) was 2.9. For the same substance, the “Internalized B” value (SKBR-3 cells; SKBR-3, 50 µM) was 303 ± 73 ng/10^6 Cells, the “Internalized B” value (SKBR-3 cells; SKBR-3, 100 µM) was 475 ± 114 ng/10^6 Cells and the “Average Fe concentration in the cytoplasm, dry weight basis” value (MDA-MB-231 cells [2]) was 250 ± 30 µg/g. For the same substance, the “Average Fe concentration in the nucleus, dry weight basis” value (MDA-MB-231 cells [2]) was 430 ± 90 µg/g, the “Increase of Fe concentration in the cytoplasm vs untreated controls” value (MDA-MB-231 cells [2]) was 1.7 fold and the “Increase of Fe concentration in the nucleus vs untreated controls” value (MDA-MB-231 cells [2]) was “up to 2.2 fold”.
